For some assays here: Negatives hold for the conditions tested. For at least one entry, the source does not settle the construct or the ends of the probe. For some assays here: The comparison behind a weaker result is the experiment's own reference, which may not be listed here.

The chains behind the UniProt entries cited, without tags or fusion partners. A line that says so, or that is headed by a name, gives the form on record, which may keep a tag or linker.
UniProt P15692, other isoform, or with tags, fused parts or gaps: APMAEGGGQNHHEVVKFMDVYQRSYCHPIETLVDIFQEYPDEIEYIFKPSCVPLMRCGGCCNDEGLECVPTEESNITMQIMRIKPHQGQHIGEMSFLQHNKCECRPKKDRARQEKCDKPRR

Series [1] has as its target VEGF-A121 (Homo sapiens) (UniProt P15692). Description: activity in cells. The conditions noted are these: 2'-F G, 2'-OMe A,C,U, 5' C6NH2, 3' idT, purified recombinant protein, dose not given here.
Series [2] shares this target. Description: flow cytometry. The following applies: all G 2'-F; all A,C,U 2'-OMe; 5' C6SS; 3' idT; purified recombinant protein; label: DyLight 650 (5' maleimide).

As to “AGGCCGCCUCCCGCGGAGGGGUUUCAUUAUCCCGUUUGGCGGCUU [Aptamer 50]”, in the series with VEGF-A121 (Homo sapiens) [1] (SP3 spacer at position 12 between parts, KDR phosphorylation, VEGF-A isoform not stated for this column), the functional effect of the aptamer (fold worse than Aptamer 26) is above 100.
Turning to “AGGCCGCCUCCGCCGGAGGGGUUUCAUUAUCCCGUUUGGCGGCUU [Aptamer 52]”, in the series with VEGF-A121 (Homo sapiens) [1] (SP3 spacer at position 14 between parts, KDR phosphorylation, VEGF-A isoform not stated for this column), the functional effect of the aptamer (fold worse than Aptamer 26) was above 100.
Take “UAGGCCGCCUCCGCGCGGGGGGGUUUCAUUAUCCCGUUUGGCGGCUUU [Aptamer 27]”: in the series with VEGF-A121 (Homo sapiens) [1] (KDR phosphorylation in HEK293-KDR), the “functional effect of the aptamer” value is reported as “not active”.
Consider “AGGCCGCCUCCGCGCGGAGGGGUUUCAUUAUCCGUUUGGCGGCUU [Aptamer 72]”, for which, in the series with VEGF-A121 (Homo sapiens) [1] (SP3 spacer at position 34 between parts, KDR phosphorylation, VEGF-A isoform not stated for this column), the functional effect of the aptamer (fold worse than Aptamer 26) is above 100.
Regarding “AGGCCGCCUCCGCGCGGAGGGGUUUCAUUAUCCCGUUGGCGGCUU [Aptamer 74]”, in the series with VEGF-A121 (Homo sapiens) [1] (SP3 spacer at position 36 between parts, KDR phosphorylation, VEGF-A isoform not stated for this column), the functional effect of the aptamer (fold worse than Aptamer 26) was above 100.
In the case of “AGGCCGCCUCGCGCGGAGGGGUUUCAUUAUCCCGUUUGGCGGCUU [Aptamer 49]”, the functional effect of the aptamer (fold worse than Aptamer 26) with VEGF-A121 (Homo sapiens) [1] (SP3 spacer at position 11 between parts, KDR phosphorylation, VEGF-A isoform not stated for this column) was above 100.
Take “AGGCCGCCUCCGCGCGGAGGGUUUCAUUAUCCCGUUUGGCGGCUU [Aptamer 57]”: the functional effect of the aptamer (fold worse than Aptamer 26) with VEGF-A121 (Homo sapiens) [1] (SP3 spacer at position 19 between parts, KDR phosphorylation, VEGF-A isoform not stated for this column) is above 100.
In the case of “AGGCCGCCUCCGCGCGGAGGGGUUUCAUUAUCCGUUUGGCGGCUU [Aptamer 70]”, the functional effect of the aptamer (fold worse than Aptamer 26) with VEGF-A121 (Homo sapiens) [1] (SP3 spacer at position 32 between parts, KDR phosphorylation, VEGF-A isoform not stated for this column) is above 100.
As to “AGGCCGCCUCCGCGCGAGGGGUUUCAUUAUCCCGUUUGGCGGCUU [Aptamer 54]”, the functional effect of the aptamer (fold worse than Aptamer 26) with VEGF-A121 (Homo sapiens) [1] (SP3 spacer at position 16 between parts, KDR phosphorylation, VEGF-A isoform not stated for this column) is above 100.
Take “AGGCCGCCUCCGCGCGGAGGGUUUCAUUAUCCCGUUUGGCGGCUU [Aptamer 59]”: the functional effect of the aptamer (fold worse than Aptamer 26) in the series with VEGF-A121 (Homo sapiens) [1] (SP3 spacer at position 21 between parts, KDR phosphorylation, VEGF-A isoform not stated for this column) was above 100.
On to “AGGCCGCCUCCGCGCGGGGGGUUUCAUUAUCCCGUUUGGCGGCUU [Aptamer 56]”, for which, in the series with VEGF-A121 (Homo sapiens) [1] (SP3 spacer at position 18 between parts, KDR phosphorylation, VEGF-A isoform not stated for this column), the functional effect of the aptamer (fold worse than Aptamer 26) was above 100.
“AGGCCGCCUCCGGCGGAGGGGUUUCAUUAUCCCGUUUGGCGGCUU [Aptamer 51]”: the functional effect of the aptamer (fold worse than Aptamer 26) with VEGF-A121 (Homo sapiens) [1] (SP3 spacer at position 13 between parts, KDR phosphorylation, VEGF-A isoform not stated for this column) was above 100.
With “AGGCCGCCUCCGCGCGGAGGGGUUUCAUUAUCCCUUUGGCGGCUU [Aptamer 73]”, in the series with VEGF-A121 (Homo sapiens) [1] (SP3 spacer at position 35 between parts, KDR phosphorylation, VEGF-A isoform not stated for this column), the functional effect of the aptamer (fold worse than Aptamer 26) is above 100.
As to “AGGCCGCCUCCGCGCGAGGGGUUUCAUUAUCCCGUUUGGCGGCUU [Aptamer 55]”, in the series with VEGF-A121 (Homo sapiens) [1] (SP3 spacer at position 17 between parts, KDR phosphorylation, VEGF-A isoform not stated for this column), the functional effect of the aptamer (fold worse than Aptamer 26) was above 100.
As for “AGGCCGCCUCCGCGCGGAGGGGUUUCAUUACCCGUUUGGCGGCUU [Aptamer 69]”, the functional effect of the aptamer (fold worse than Aptamer 26) in the series with VEGF-A121 (Homo sapiens) [1] (SP3 spacer at position 31 between parts, KDR phosphorylation, VEGF-A isoform not stated for this column) is above 100.
Take “AGGCCGCCUCCGCGCGGAGGGGUUUCAUUAUCCCGUUGGCGGCUU [Aptamer 76]”: the functional effect of the aptamer (fold worse than Aptamer 26) with VEGF-A121 (Homo sapiens) [1] (SP3 spacer at position 38 between parts, KDR phosphorylation, VEGF-A isoform not stated for this column) is above 100.
Turning to “AGGCCGCCUCCGCGCGGAGGGGUUUCAUUAUCCGUUUGGCGGCUU [Aptamer 71]”, in the series with VEGF-A121 (Homo sapiens) [1] (SP3 spacer at position 33 between parts, KDR phosphorylation, VEGF-A isoform not stated for this column), the functional effect of the aptamer (fold worse than Aptamer 26) is above 100.
In the case of “AGGCCGCCUCCGCGCGGAGGGGUUUCAUUAUCCCGUUUGGCGGCUU [Aptamer 4.2 (r7-01)]”, in the series with VEGF-A121 (Homo sapiens) [2], the binding result is listed as “binds”.
As for “AGGCCGCCUCCGCGCGGAGGGGUUUCAUUAUCCCGUUGGCGGCUU [Aptamer 75]”, the “functional effect of the aptamer” value with VEGF-A121 (Homo sapiens) [1] (SP3 spacer at position 37 between parts, KDR phosphorylation, VEGF-A isoform not stated for this column) is “less active”.
Turning to “AGGCCGCCUCCGCGGGAGGGGUUUCAUUAUCCCGUUUGGCGGCUU [Aptamer 53]”, the functional effect of the aptamer (fold worse than Aptamer 26) with VEGF-A121 (Homo sapiens) [1] (SP3 spacer at position 15 between parts, KDR phosphorylation, VEGF-A isoform not stated for this column) was above 100.

Source of the values: patent US20220098591.
